These results are taken from patent US9365489B2, “Nitrooxy alkanoic acids and derivatives thereof in feed for reducing methane emission in ruminants, and/or to improve ruminant performance” (priority 2009, dated 2016).

The data set is described as follows: In vivo test: body weight and feed intake. The settings on record: for Body weight: ruminal cannula, average of weights prior and after chamber measurements, control 43.2; for DMI: control 809.5. Set-up: species or system sheep.

As to `CCOC(=O)CCO[N+](=O)[O-]` [Ethyl-3-nitrooxy propionate], where the note is “Dose 1 (50 mg/animal per day)”, the Body weight worked out at 43.9 kg and the DMI is 858.5 g/day. For the same compound, under “Dose 2 (500 mg/animal per day)”, the Body weight amounted to 42.6 kg and the DMI turned out to be 809.7 g/day.
